Laboratory results published in PubChem BioAssay AID1347076 (National Center for Advancing Translational Sciences (NCATS), 2019).
About 13,000 (3.2%) of roughly 400,000 compounds were called active. Inconclusive results, whose numbers are uncertain, are shown with a selection of clear calls. The call rests on the fitted dose curve; in most records, active means well fitted cell-killing curve with a large enough effect; inconclusive means small, poorly fitted or top-dose-only effect, or effect the other way; inactive means flat fitted curve, though single readings scatter. Potencies of inconclusive entries are doubtful fits and often do not repeat.

assay: qHTS assay for MDR1-selective chemotherapeutics: Primary screen using the drug-selected MDR subline cells KB-V1; settings: KB-V1 MDR cells viability, CellTiter-Glo, 72 h; activity change, negative = cytotoxicity: at 46.1 µM (top of the series); further: nearly all actives have a fitted effect of over 60% in size
How it was run: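 Compound-treated KB-V1 multidrug-resistant cells, 72 h, 37 degrees C; viability by CellTiter-Glo. Fitted qHTS curves give the values.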
On the % scale 0 is the no-effect control and ±100 the full control effect; potency means the concentration at half of the fitted maximal effect.

Question: With CC1CC(C)(C)NC(=S)N1CCC(=O)Nc1ccc2c(c1)OCCO2 (stereo unspecified) as the molecule, how does the Potency read?
Answer: inconclusive: 0.58 µM [cytotoxic, full curve, poor fit]

Question: With CCOCCCNC(=O)c1cc2c(=O)[nH]c3ccccc3c2s1 as the molecule, how does the Potency read?
Answer: inconclusive: 14.6 µM [cytotoxic, partial curve, poor fit]

Question: Which “activity change, negative = cytotoxicity” value does the source give for CSc1ccc(/C=N/N(C)S(=O)(=O)c2ccc(C)cc2)cc1 here?
Answer: inactive: -27.5%

Question: For O=C(c1ccccc1)N1N=C(c2ccccc2)CC1(O)C(F)(F)F (stereo unspecified), which “activity change, negative = cytotoxicity” value is on record?
Answer: inactive: 0%

Question: For CCn1cc([N+](=O)[O-])c(C(=O)N2N=C(c3ccc4ccccc4c3)CC2c2cc(Br)ccc2O)n1 (stereo unspecified), which Potency is on record?
Answer: inconclusive: 29.1 µM [cytotoxic, single point]

Question: Which “activity change, negative = cytotoxicity” value does the source give for Cc1ccccc1CS(=O)(=O)c1snnc1C here?
Answer: inactive: 0.656%

Question: Which “activity change, negative = cytotoxicity” value does the source give for C=CCNc1nc(NCCCN2CCCC2=O)c2sc(-c3ccccc3)cc2n1 here?
Answer: inactive: -25.1%

Question: For O=C(COc1ccc(F)cc1)NC1CC(=O)N(c2ccc3c(c2)OCCO3)C1 (stereo unspecified), which Potency is on record?
Answer: inconclusive: 0.0065 µM [rising, full curve, poor fit]

Question: With Cc1ccc2nc(-c3ccncc3)cc(C(=O)N3CCOCC3)c2c1 as the molecule, how does the “activity change, negative = cytotoxicity” value read?
Answer: inactive: -21.5%

Question: Which “activity change, negative = cytotoxicity” value does the source give for COc1ccc(-c2nnn(Cc3ccccc3)n2)cc1OC here?
Answer: inactive: -4.07%

Question: Which Potency does the source give for CNC(=O)c1ccc(-c2ccc(OC)cc2)s1 here?
Answer: inconclusive: 29.1 µM [cytotoxic, single point]

Question: With CCOC(=O)c1ccc(-c2c(-c3ccc4c(c3)OCO4)noc2-c2ccsc2)cc1F as the molecule, how does the Potency read?
Answer: inconclusive: 8.2 µM [cytotoxic, partial curve]

Question: For CC(=O)Nc1ccc(NC(=O)Cn2c(=O)ccc3cc(S(=O)(=O)N4CCC(C)CC4)ccc32)cc1, which Potency is on record?
Answer: inconclusive: 0.0092 µM [rising, full curve]

Question: With CCOc1ccc(OCC)c(NS(=O)(=O)c2ccc3[nH]c(=O)ccc3c2)c1 as the molecule, how does the Potency read?
Answer: inconclusive: 2.91 µM [cytotoxic, partial curve, poor fit]

Question: With CC1(c2nnc(-c3ccc(Cl)cc3)o2)CC(c2ccncc2)=NO1 (stereo unspecified) as the molecule, how does the Potency read?
Answer: inconclusive: 29.1 µM [rising, single point]

Question: With c1ccc(COc2ncnc3c2ncn3CCCNCCN2CCOCC2)cc1 as the molecule, how does the “activity change, negative = cytotoxicity” value read?
Answer: inactive: -0.153%

Question: For O=C(COC(=O)c1ccccn1)NCCCc1ccccc1, which Potency is on record?
Answer: inconclusive: 29.1 µM [rising, single point]

Question: With O=C(Nc1ncccn1)c1ccc([N+](=O)[O-])cc1[N+](=O)[O-] as the molecule, how does the “activity change, negative = cytotoxicity” value read?
Answer: inactive: 3.81%

Question: With CN(Cc1ccccc1F)C(=O)CNC(=O)Cc1cccc2ccccc12 as the molecule, how does the Potency read?
Answer: inconclusive: 9.2 µM [cytotoxic, partial curve]

Question: For COc1ccc(NC(C)C(=O)N/N=C/c2ccc([N+](=O)[O-])s2)cc1 (stereo unspecified), which Potency is on record?
Answer: inconclusive: 23.1 µM [cytotoxic, single point]

Question: For COC(=O)C[C@H]1c2cc(C(F)(F)F)ccc2S(=O)(=O)N1C1CCCCC1, which Potency is on record?
Answer: inconclusive: 23.1 µM [cytotoxic, single point]

Question: Which “activity change, negative = cytotoxicity” value does the source give for N#Cc1ccc(-c2ccc3nccn3c2)cc1 here?
Answer: inactive: -0.62%

Question: With CCOC(=O)c1c(C)oc2c1c(C(c1ccccc1)N1CCOCC1)c(O)c1ccccc12 (stereo unspecified) as the molecule, how does the Potency read?
Answer: active: 18.4 µM

Question: For COc1nc(C)ccc1-c1noc(-c2cccs2)n1, which “activity change, negative = cytotoxicity” value is on record?
Answer: inactive: -1.12%

Question: Which “activity change, negative = cytotoxicity” value does the source give for COc1ccc(NC(=O)COC(=O)C2CCCN2C(=O)OC(C)(C)C)cc1Cl (stereo unspecified) here?
Answer: inactive: -5.46%

Question: Which Potency does the source give for c1ccc(C2Nc3ccccc3C3OCCCC23)cc1 (stereo unspecified) here?
Answer: inconclusive: 25.9 µM [cytotoxic, partial curve, poor fit]

Question: With CC(C)c1ccc(NC(=O)C(NS(=O)(=O)c2ccc3c(c2)CCC(=O)N3)c2ccccc2)cc1 (stereo unspecified) as the molecule, how does the “activity change, negative = cytotoxicity” value read?
Answer: inactive: 8.72%

Question: For CCOCN(C(=O)Cn1c(CC(C)C)nc2ccccc21)c1c(C)cccc1CC, which “activity change, negative = cytotoxicity” value is on record?
Answer: inactive: -4.86%

Question: For Cn1c(=O)cc(OCC(=O)N2CCN(c3ccc(F)cc3)CC2)c2ccccc21, which Potency is on record?
Answer: inconclusive: 14.6 µM [rising, single point]

Question: Which Potency does the source give for Cn1cc(C(=O)N2CCN(c3cccc(Cl)c3)CC2)c(=O)c2cc(S(=O)(=O)N3CCOCC3)ccc21 here?
Answer: inconclusive: 29.1 µM [rising, single point]

Question: With Nc1ncnc2c1ncn2[C@@H]1O[C@H](COS(=O)(=O)O)[C@@H](O)[C@H]1O as the molecule, how does the Potency read?
Answer: inconclusive: 23.1 µM [rising, single point]

Question: Which Potency does the source give for O=[N+]([O-])c1ccc2c(c1)C(=NO)c1cc(F)ccc1-2 here?
Answer: inconclusive: 14.6 µM [cytotoxic, partial curve]

Question: With Cc1ccc(OCC(=O)NNC(=O)c2ccccc2OCc2c(C)noc2C)cc1 as the molecule, how does the Potency read?
Answer: inconclusive: 6.51 µM [cytotoxic, partial curve]

Question: Which “activity change, negative = cytotoxicity” value does the source give for CCCCc1nc2cc(C(=O)N3CCCC(OCCC)C3)ccc2o1 (stereo unspecified) here?
Answer: inactive: -6.38%

Question: For O=C(COC(=O)c1ccc2c(c1)OCCO2)NC1CCCCC1, which Potency is on record?
Answer: inconclusive: 29.1 µM [cytotoxic, single point]

Question: With CCc1ccc(NC(=O)N(Cc2cn(CC)c3ccccc23)C2CCCCC2)cc1 as the molecule, how does the “activity change, negative = cytotoxicity” value read?
Answer: inactive: -19.7%

Question: For CCOC(=O)C1(CCCc2ccccc2)CCN(C(=O)CSC)CC1, which Potency is on record?
Answer: inconclusive: 1.3 µM [cytotoxic, full curve]

Question: Which “activity change, negative = cytotoxicity” value does the source give for O=C1C2C3C=CC(C3)C2C(=O)N1c1ccc2ccccc2c1 (stereo unspecified) here?
Answer: inactive: -13.6%

Question: Which “activity change, negative = cytotoxicity” value does the source give for COc1ccc(CN2CCN(CC3CC3)CC2CCO)cc1C (stereo unspecified) here?
Answer: inactive: -3.48%

Question: With COc1cccc(N2C(=O)CC(N3CCN(S(=O)(=O)c4ccccc4[N+](=O)[O-])CC3)C2=O)c1 (stereo unspecified) as the molecule, how does the Potency read?
Answer: inconclusive: 29.1 µM [rising, partial curve, poor fit]

Question: Which “activity change, negative = cytotoxicity” value does the source give for CCc1ccc(NC(=O)COCc2cc(-c3ccc(F)cc3)on2)cc1 here?
Answer: inactive: 0.436%

Question: Which Potency does the source give for Cc1ccc(-c2csc(N(CCCN(C)C)C(=O)c3ccco3)n2)cc1 here?
Answer: inconclusive: 8.2 µM [cytotoxic, partial curve]

Question: For COc1ccc([C@H]2C[C@H](n3cc(COC(=O)c4ccccc4)nn3)[C@@H](O)CN2C(=O)C2CCCCC2)cc1, which Potency is on record?
Answer: inconclusive: 32.6 µM [rising, single point]

Question: For Cc1ccc(C(=O)N(c2ccccc2)C2CC(C)N(C(=O)c3ccco3)c3ccccc32)cc1 (stereo unspecified), which Potency is on record?
Answer: inconclusive: 29.1 µM [cytotoxic, single point]

Question: With Nc1c(-c2ccccc2)cnn1-c1cccc([N+](=O)[O-])c1 as the molecule, how does the Potency read?
Answer: active: 23.1 µM

Question: Which Potency does the source give for O=C(Nc1ccc(NC(=O)c2ccccc2Cl)nc1)c1ccco1 here?
Answer: inconclusive: 14.6 µM [cytotoxic, partial curve, poor fit]

Question: For O=C(N/C(=C/C=C/c1ccccc1)C(=O)N1CCOCC1)c1ccccc1Br, which Potency is on record?
Answer: inconclusive: 0.651 µM [cytotoxic, full curve, poor fit]

Question: Which “activity change, negative = cytotoxicity” value does the source give for CCN(CC)CCN(Cc1cc2cc(C)ccc2[nH]c1=O)C(=O)Nc1ccccc1OC here?
Answer: inactive: 10.3%

Question: Which Potency does the source give for N#Cc1c(N)c(C#N)c(-c2ccc(O)cc2)c2c1CCCC2 here?
Answer: inconclusive: 16.4 µM [cytotoxic, single point]

Question: Which Potency does the source give for COCc1nc(-c2ccc(-c3ccccc3)nc2OC)no1 here?
Answer: inconclusive: 29.1 µM [cytotoxic, single point]

Question: Which Potency does the source give for CC(C)(C)OC(=O)N(Cc1ccccc1)Cc1ccccc1OCc1ccc(NC(=O)C2CCC2)cc1 here?
Answer: inconclusive: 29.1 µM [cytotoxic, single point]

Question: For O=[N+]([O-])c1cc(-c2cnc3ccccc3n2)ccc1Oc1ccc(Cl)cc1, which “activity change, negative = cytotoxicity” value is on record?
Answer: inactive: -16.3%

Question: Which “activity change, negative = cytotoxicity” value does the source give for Cc1oc(-c2ccccc2F)nc1CS(=O)(=O)CC(=O)NC(C)CCc1ccccc1 (stereo unspecified) here?
Answer: inactive: -18.1%

Question: For COc1ccc(C2CC(C(F)(F)F)n3nc(C(N)=O)c(Cl)c3N2)cc1OC (stereo unspecified), which activity change, negative = cytotoxicity is on record?
Answer: inconclusive: -52.3%

Question: With NC(=S)N=Nc1c(O)[nH]c2ccc(F)cc12 as the molecule, how does the Potency read?
Answer: inconclusive: 29.1 µM [cytotoxic, single point]

Question: With Cc1ccc(C(=O)Nc2ncc3c(n2)CC(c2ccco2)CC3=O)cc1 (stereo unspecified) as the molecule, how does the Potency read?
Answer: inconclusive: 14.6 µM [cytotoxic, partial curve]

Question: For CCCCNC(=O)C1(C)CCCCN1Cc1ccccc1-c1ccccc1 (stereo unspecified), which Potency is on record?
Answer: inconclusive: 20.6 µM [cytotoxic, partial curve]

Question: For O=C(NCCC1CCCCN1S(=O)(=O)c1ccccc1)C(=O)Nc1ccccc1F (stereo unspecified), which “activity change, negative = cytotoxicity” value is on record?
Answer: inactive: -18.7%

Question: For CC(C)c1ccc(/C=C(\C#N)c2nc(-c3cc4ccccc4oc3=O)cs2)cc1, which Potency is on record?
Answer: inconclusive: 29.1 µM [rising, single point]

Question: For COc1ccccc1CNC(=O)COc1ccc(S(=O)(=O)N2CCCC2)cc1, which “activity change, negative = cytotoxicity” value is on record?
Answer: inactive: -18.5%

Question: For CC1CN(S(=O)(=O)c2cccc(C(=O)Nc3ccc4c(c3)CCC4)c2)CC(C)O1 (stereo unspecified), which Potency is on record?
Answer: inconclusive: 13 µM [cytotoxic, single point]

Question: For Cc1nc2ccc(NC(=O)Cc3ccc4c(c3)OCCO4)cc2s1, which Potency is on record?
Answer: active: 14.6 µM

Question: For O=CC1=C(c2ccccc2)Oc2ccccc2O1, which Potency is on record?
Answer: inconclusive: 29.1 µM [cytotoxic, single point]

Question: For COc1cc(Cl)c(C)cc1NS(=O)(=O)c1c(C)nc2sccn2c1=O, which Potency is on record?
Answer: inconclusive: 23.1 µM [cytotoxic, single point]

Question: Which Potency does the source give for COc1cc(S(=O)(=O)NCc2ccccc2)ccc1Br here?
Answer: inconclusive: 18.4 µM [cytotoxic, single point]

Question: For Cc1ccc(/C=N/NC(=O)c2ccoc2C)s1, which “activity change, negative = cytotoxicity” value is on record?
Answer: inactive: 6.02%

Question: With O=C(Nc1cccnc1)c1ccc(Br)s1 as the molecule, how does the Potency read?
Answer: inconclusive: 16.4 µM [cytotoxic, single point]

Question: Which Potency does the source give for C=CCN1C(=O)CSc2ccc(C(=O)NCc3cccs3)cc21 here?
Answer: inconclusive: 23.1 µM [cytotoxic, single point]

Question: Which Potency does the source give for Cc1ccc(-n2c(SCc3cn4ccsc4n3)nc3ccccc3c2=O)cc1 here?
Answer: inconclusive: 29.1 µM [cytotoxic, single point]

Question: For COc1ccccc1C1=Nc2cccc3cccc(c23)N1, which Potency is on record?
Answer: inconclusive: 23.1 µM [cytotoxic, partial curve, poor fit]

Question: With Cc1ccc(CNC(=O)c2nc(S(=O)(=O)Cc3ccc(C)cc3)ncc2Cl)cc1 as the molecule, how does the Potency read?
Answer: inconclusive: 29.1 µM [cytotoxic, single point]
